In patent publication US20220372485:
The exact form of at least one protein or probe is not confirmed. The direction of at least one scale is not stated here.

Tested on: Human alpha-thrombin (Homo sapiens)
Assay: binding assay
Conditions: purified native protein, protein details: Haematologic Technologies, Inc., single-stranded DNA; for binding signal (% fluorescence vs TBA15-F8 alone): 92.03% without thrombin; for binding signal (% fluorescence vs TBA15-F8 alone) / binding signal (% fluorescence vs TBA15-F10 alone) / binding signal (% fluorescence vs TBA15-F7 alone): RT; for binding signal (% fluorescence vs TBA15-F9 alone): 83.63% without thrombin, Tris, K, Na, Mg, Ca pH 7.5, RT; for binding signal (% fluorescence vs TBA15-F10 alone): 33.69% without thrombin; for binding signal (% fluorescence vs TBA15-F7 alone): 98.64% without thrombin

Question: How did the binding signal (% fluorescence vs TBA15-F8 alone) ((PEG)6 linker between hybridization sequence ACTACGAC and TBA29, FITC/Dabcyl quenching with TBA15-F8, 1:1:1 at 200 nM, label: 5'-Dabcyl) turn out when “ACTACGACAGTCCGTGGTAGGGCAGGTTGGGGTGACT [TBA29-D8]” was run?
Answer: The binding signal (% fluorescence vs TBA15-F8 alone) was 64.9.

Question: “ACTTACGACAGTCCGTGGTAGGGCAGGTTGGGGTGACT [TBA29-D9]” was tested. Which binding signal (% fluorescence vs TBA15-F9 alone) ((PEG)6 linker between hybridization sequence ACTTACGAC and TBA29, FITC/Dabcyl quenching with TBA15-F9, 1:1:1 at 200 nM, label: 5'-Dabcyl) did it give?
Answer: The binding signal (% fluorescence vs TBA15-F9 alone) was 30.2.

Question: Which binding signal (% fluorescence vs TBA15-F10 alone) ((PEG)6 linker between hybridization sequence AGCTTACGAC and TBA29, FITC/Dabcyl quenching with TBA15-F10, 1:1:1 at 200 nM, label: 5'-Dabcyl) does the source give for “AGCTTACGACAGTCCGTGGTAGGGCAGGTTGGGGTGACT [TBA29-D10]” here?
Answer: Its binding signal (% fluorescence vs TBA15-F10 alone) is 6.95.

Question: “ATACGACAGTCCGTGGTAGGGCAGGTTGGGGTGACT [TBA29-D7]” was tested. Which binding signal (% fluorescence vs TBA15-F7 alone) ((PEG)6 linker between hybridization sequence ATACGAC and TBA29, FITC/Dabcyl quenching with TBA15-F7, 1:1:1 at 200 nM, label: 5'-Dabcyl) did it give?
Answer: The binding signal (% fluorescence vs TBA15-F7 alone) was 69.5.

Question: Which binding signal (% fluorescence vs TBA15-F10 alone) ((PEG)6 linker between TBA15 and hybridization sequence GTCGTAAGCT, FITC/Dabcyl quenching with TBA29-D10, 1:1:1 at 200 nM, label: 3'-FITC) does the source give for GGTTGGTGTGGTTGGGTCGTAAGCT [TBA15-F10] here?
Answer: The binding signal (% fluorescence vs TBA15-F10 alone) was 6.95.

Question: For GGTTGGTGTGGTTGGGTCGTAAGT [TBA15-F9], which binding signal (% fluorescence vs TBA15-F9 alone) ((PEG)6 linker between TBA15 and hybridization sequence GTCGTAAGT, FITC/Dabcyl quenching with TBA29-D9, 1:1:1 at 200 nM, displaced by ATIII, label: 3'-FITC) is on record?
Answer: The binding signal (% fluorescence vs TBA15-F9 alone) was 30.2.

Question: Which binding signal (% fluorescence vs TBA15-F8 alone) ((PEG)6 linker between TBA15 and hybridization sequence GTCGTAGT, FITC/Dabcyl quenching with TBA29-D8, 1:1:1 at 200 nM, label: 3'-FITC) does the source give for GGTTGGTGTGGTTGGGTCGTAGT [TBA15-F8] here?
Answer: The binding signal (% fluorescence vs TBA15-F8 alone) was 64.9.

Question: GGTTGGTGTGGTTGGGTCGTAT [TBA15-F7] was tested. Which binding signal (% fluorescence vs TBA15-F7 alone) ((PEG)6 linker between TBA15 and hybridization sequence GTCGTAT, FITC/Dabcyl quenching with TBA29-D7, 1:1:1 at 200 nM, label: 3'-FITC) did it give?
Answer: The binding signal (% fluorescence vs TBA15-F7 alone) was 69.5.
